Assay results published in publication PMC7327512.
Results are given in words; binding and its absence hold for the method and conditions named.

Protein sequences, listed by entry. Tags and fused reporters are not part of them. Residues count along the entry.
UniProt P02787, residues 20-698: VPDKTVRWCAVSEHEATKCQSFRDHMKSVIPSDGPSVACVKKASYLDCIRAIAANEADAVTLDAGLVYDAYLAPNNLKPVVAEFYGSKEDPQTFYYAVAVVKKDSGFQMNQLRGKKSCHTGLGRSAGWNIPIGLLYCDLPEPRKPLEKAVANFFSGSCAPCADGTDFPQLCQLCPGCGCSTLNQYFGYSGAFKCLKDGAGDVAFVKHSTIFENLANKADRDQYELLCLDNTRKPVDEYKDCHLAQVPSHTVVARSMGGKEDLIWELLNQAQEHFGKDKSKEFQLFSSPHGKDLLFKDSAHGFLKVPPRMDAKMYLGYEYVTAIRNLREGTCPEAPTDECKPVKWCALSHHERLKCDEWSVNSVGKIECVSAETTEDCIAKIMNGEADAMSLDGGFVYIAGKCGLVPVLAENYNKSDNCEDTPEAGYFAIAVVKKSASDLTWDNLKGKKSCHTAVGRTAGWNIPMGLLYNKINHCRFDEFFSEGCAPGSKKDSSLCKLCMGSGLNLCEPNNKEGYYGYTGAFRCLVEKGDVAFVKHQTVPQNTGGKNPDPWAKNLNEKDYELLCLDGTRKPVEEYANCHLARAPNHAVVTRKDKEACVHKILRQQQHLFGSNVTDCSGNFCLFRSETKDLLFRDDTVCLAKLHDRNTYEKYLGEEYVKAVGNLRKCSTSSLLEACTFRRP

Biological target: apotransferrin (UniProt P02787)
Experiment: ligand affinity purification of integrin adhesion complexes, western blot; podocytes spread on dishes coated with ECM ligand or apotransferrin (10 μg/ml); cross-linker DTBP 6 mM for 3 min; cell bodies removed with Triton X-100 extraction buffer and water wash; complexes left bound to the substrate resolved by SDS-PAGE and blotted; only the target purified

vinculin (from UniProt P18206-2)
binding: no binding
